Among the data in the odorant receptor screen of Mainland et al. (2015) are odorant receptor activation values, retold here.

Molecules are shown by their SMILES. Values joined by “and” are separate entries in the source; they are usually repeats but may differ in a detail not shown here. Identical values can stand only once. The list shows a part of the results. Single wells; the ratio to wells without odorant was worked out here, and repeats agree poorly.

Test systems include OR51L1 clone 1534; OR51Q1 clone 1190; OR51S1 clone 1699; OR51T1 clone 1326; OR51V1 clone 1700; OR51V1 clone 1701; OR52A1 S272P clone 1151; OR52A4 clone 1719; OR52A5 clone 1568.
Assay in all cases: odorant receptor activation (CRE luciferase / Renilla) (fold of no-odor wells); higher = more activation
Settings in all cases: 100 µM

The subject of assay [1] is OR51M1 H91Q/L124F/I193T/P245H/F307L clone 1121.

For `CCCCCCCOC(C)=O` [heptyl acetate], the odorant receptor activation was 0.611 and 1.15 in the assay with OR51L1 clone 1534; 1.14 in assay [1]; 1.07 in the assay on OR51Q1 clone 1190; 0.67 with OR51S1 clone 1699; 1 and 0.753 in the assay on OR51T1 clone 1326; 0.845 in the assay with OR51V1 clone 1700. Also, the odorant receptor activation in the assay with OR51V1 clone 1701 came out at 0.885; with OR52A1 S272P clone 1151, 0.909; in the assay with OR52A4 clone 1719, 0.861; with OR52A5 clone 1568, 0.832.
`C=C(C)C1CC=CCC1` (configuration not stated) [r-limonene]: the odorant receptor activation is 0.971 and 0.531 and 0.666 in the assay with OR51L1 clone 1534; 0.943 in assay [1]; 0.799 and 0.375 with OR51Q1 clone 1190; 0.928 in the assay with OR51S1 clone 1699; 1.39 in the assay on OR51V1 clone 1700; 0.984 in the assay on OR51V1 clone 1701. Moreover, the odorant receptor activation with OR52A1 S272P clone 1151 was 0.993 and 0.41; with OR52A4 clone 1719 it was 1.17; in the assay on OR52A5 clone 1568, 0.976.
In the case of `CC(C)=CCCC(C)=CC=O` [citral], the odorant receptor activation is 0.677 with OR51L1 clone 1534; 1.58 in [1]; 1.02 in the assay with OR51Q1 clone 1190; 0.035 in the assay with OR51S1 clone 1699; 1.15 in the assay on OR51T1 clone 1326; 0.009 in the assay with OR51V1 clone 1700. In addition, the odorant receptor activation turned out to be 0.984 in the assay on OR51V1 clone 1701, 0.901 with OR52A1 S272P clone 1151, 1.03 in the assay on OR52A4 clone 1719 and 1.36 with OR52A5 clone 1568.
For the molecule `CC1CCC(C(C)C)C(O)C1` (single isomer, unassigned; (+)) [(+)-menthol], the odorant receptor activation in the assay with OR51L1 clone 1534 amounted to 1.04; in assay [1], 0.717; in the assay on OR51Q1 clone 1190, 1.14; in the assay with OR51S1 clone 1699, 0.817; with OR51T1 clone 1326 it was 1.13; in the assay on OR51V1 clone 1700 it was 0.876. For the same molecule, the odorant receptor activation in the assay on OR51V1 clone 1701 amounted to 0.878; in the assay on OR52A1 S272P clone 1151, 1.3; in the assay with OR52A4 clone 1719, 0.869; in the assay with OR52A5 clone 1568 it was 0.872.
In the case of `C=C(C)C1CCC2=CC(=O)CC(C)C2(C)C1` (configuration not stated) [amyl laurate], the odorant receptor activation in assay [1] amounted to 2.24; with OR51S1 clone 1699, 1.96; in the assay with OR51V1 clone 1700, 2; in the assay with OR51V1 clone 1701, 1.79; with OR52A4 clone 1719, 0.713; in the assay with OR52A5 clone 1568, 1.02.
As to `c1cnccn1` [pyrazine], the odorant receptor activation in the assay with OR51L1 clone 1534 is 0.91; in [1] it was 0.937; with OR51Q1 clone 1190 it was 0.579; with OR51S1 clone 1699 it was 0.937; in the assay with OR51T1 clone 1326, 0.99; in the assay on OR51V1 clone 1700, 1.01. Further, the odorant receptor activation with OR51V1 clone 1701 came to 0.599; in the assay on OR52A1 S272P clone 1151, 0.847; with OR52A4 clone 1719, 0.672; with OR52A5 clone 1568, 0.849.
For `CC(C)(C)c1ccc(CCC=O)cc1` [bourgeonal], the odorant receptor activation in the assay with OR51L1 clone 1534 stood at 0.71; in the assay with OR51Q1 clone 1190, 0.715; in the assay on OR51T1 clone 1326, 0.661; in the assay on OR52A1 S272P clone 1151, 0.662.
`CC1=NC(C)SC1C` (configuration not stated): the odorant receptor activation in the assay with OR51L1 clone 1534 is 0.728 and 0.92; in the assay with OR51Q1 clone 1190, 0.645; with OR51T1 clone 1326 it was 0.713; in the assay with OR52A1 S272P clone 1151, 0.917.
Consider `CC12C=CCC1C1CCC3CC(=O)CCC3(C)C1CC2` (configuration not stated) [androstenone], for which the odorant receptor activation is 0.978 with OR51L1 clone 1534, 3.23 with OR51Q1 clone 1190, 1.3 with OR51T1 clone 1326 and 5.52 in the assay on OR52A1 S272P clone 1151.
For the molecule `COc1ccccc1O` [guaiacol], the odorant receptor activation was 0.543 and 1.14 with OR51L1 clone 1534; 1.41 in assay [1]; 0.899 with OR51Q1 clone 1190; 1.03 in the assay on OR51S1 clone 1699; 0.898 and 0.99 in the assay on OR51T1 clone 1326; 0.991 in the assay with OR51V1 clone 1700. Also, the odorant receptor activation was 0.731 with OR51V1 clone 1701, 0.955 with OR52A1 S272P clone 1151, 0.948 in the assay on OR52A4 clone 1719 and 1.05 in the assay with OR52A5 clone 1568.
